Results of single-concentration screens

The values are deposited in ChEMBL (CHEMBL3988442, “University of Dundee, Small-Polar-MMV Screening Library” (2021)).

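Growth of Mycobacterium tuberculosis over 4 days (cholesterol / DPPC medium with tyloxapol); the read-out is not stated. Compounds at 50 µM. Direction is inferred from retests: higher values go with more growth inhibition. Size under these conditions: about 69,000 compounds, about 370 of them at 50% or above in at least one test.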

The filed quantity is “Percent Effect” (%). The record does not define 0% and 100%; most values in the screen are far below 50% and negative numbers occur (in some assays of this library far below -100). Compounds were drawn at random from those tested, without regard to their results. Two or more numbers in one place are separate tests of the same structure; such repeats can differ widely.

| SMILES | effect |
|---|---|
| `CNS(=O)(=O)CC(=O)N(Cc1c(F)cccc1F)C1CCCC1` | -11.45% |
| `CCn1ncc2c1CN(C(=O)c1cc(C)oc1C)CC2COC.O=C(O)C(F)(F)F` (stereo not given) | -3.746% |
| `COc1cc(C)c(C2CC(=O)Nc3cc(NS(C)(=O)=O)ccc32)cc1C` (stereo not given) | -27.04% |
| `CC(C)c1nc2c(n1C)CCN(Cc1cccc(OCC(N)=O)c1)C2` | -12.8% |
| `Cc1nc(C)n(CC2CCCCN2CC(=O)Nc2nncs2)n1` (stereo not given) | 5.309% |
| `COCCCN1CC2(CCN(C(=O)Cc3csc(C)n3)CC2)CC1=O` | 0.6268% and 18.12% |
| `Cc1cc(CNc2ccc(C(=O)N3CCCC(C)C3)cc2C)no1` (stereo not given) | -23.69% |
| `Cn1ncc2c(=O)[nH]c(CN3CCC(Cc4ccccc4)CC3)nc21` | 4.692% |
| `Cc1ocnc1C(=O)N(C)[C@@H]1CCC[C@@H](N2CCCC2)[C@@H]1O` | 11.7% and 7.561% |
| `CN1CCN(C(=O)c2cc3sccc3n2Cc2ccccc2Cl)CC1` | 16.74% |
| `O=C(O)Cn1nc(C2CC2)c2c(-c3ccco3)ccnc21` | -21.29% |
| `CC(=O)N1CCN([C@@H]2CC[C@@H](NC(=O)c3cncc(C)c3)[C@H]2O)CC1` | 3.008% |
| `Cc1ccc(-c2nc(CN3CCOC(Cn4cccn4)C3)no2)cc1` (stereo not given) | 1.703% |
| `COc1cc(CN[C@@H]2COC[C@H]2Cc2cc(C)no2)cc(OC)c1.O=C(O)CC(O)(CC(=O)O)C(=O)O` | -4.325% |
| `CCC(NC(=O)NCc1cccc(N(C)C)n1)c1ccccc1OC` (stereo not given) | 0.7171% |
| `O=C(O)CCCC(=O)N1CCC(c2noc3cc(F)ccc23)CC1` | 1.442% |
| `O=C(O)C(F)(F)F.[H][C@@]12CN(CC)CCO[C@]1([H])CN(C(=O)COC1CCCC1)C2` | -20.58% |
| `O=C(c1ccc(=O)[nH]n1)N1CCNCC1c1ccccc1` (stereo not given) | 5.632% |
| `NC(=O)CN1CCN(C(=O)c2cc(Cl)cc3cccnc23)CC1` | -13.76% |
| `O=C(O)C(F)(F)F.O=C1COC2(CCN(Cc3ccoc3)CC2)CN1CCn1cccn1` | -15.11% |
| `Cn1ccnc1CN1CCN(Cc2cc(C#N)ccc2F)CC1` | -10.27% |
| `Cc1ccc(S(=O)(=O)Cc2noc([C@@H]3C[C@@H](O)CN3C)n2)cc1` | 12.12% |
| `CC(=O)c1ccc(NC(=O)c2ccc3c(c2)C2(CCCCC2)CN3)cc1.O=C(O)C(F)(F)F` | -9.699% |
| `O=C(O)C(F)(F)F.O=C(O)C(F)(F)F.O=C(O)c1cc2c(nc1-c1cncnc1)CCN(C1CCOC1)CC2` (stereo not given) | -21.22% and -11.39% |
| `CC(=O)N(Cc1noc(C)n1)C1CCN(CC2(O)CCCCC2)C1` (stereo not given) | 17.96% |
| `CCCc1n[nH]c(C2CN(CCn3cccn3)CCO2)n1` (stereo not given) | -16.87% |
| `N#CCCN(C(=O)CN1CCCC1C1CCCCC1)c1ccccc1` (stereo not given) | -1.42% and -6.659% |
| `[H][C@@]12CN(Cc3cc4ccccc4o3)C[C@]1(C(=O)O)CN(CC1CC1)C2=O` | -9.271% |
| `Cc1noc(C)c1CCC(=O)N1CCCC(n2cccn2)C1` (stereo not given) | 7.897% |
| `O=C1NC2(Cc3ccccc31)CN(CC1CCNC1)C2` (stereo not given) | 9.09% |
| `Cc1oc(-c2ccsc2)nc1CN1CCCC(c2ccnn2C)C1` (stereo not given) | -19% |
| `O=C(CCCNCc1ccccc1)N1CCCn2cncc2C1` | 19% |
| `O=C(O)c1cc(-c2cn[nH]c2)cc(S(=O)(=O)N2CCSCC2)c1` | -6.742% and 3.041% |
| `CC(NCc1cccc2c1OCCO2)c1cc2c(cc1Br)OCCO2` (stereo not given) | 19% |
| `O=C(Cn1nnn(-c2cccs2)c1=O)NCC1CCOC1` (stereo not given) | -14.94% |
| `CC(C)c1nccc(-c2nccn2CCN(C)S(C)(=O)=O)n1` | -34.51% |
| `CCn1ccnc1CN1CCCN(C(=O)c2cncnc2C)CC1` | -6.847% |
| `CNc1ncc(CN(C)Cc2cc3n(n2)CCNC3)cn1` | -28.71% |
| `CN(c1ncc(C(N)=O)cc1Cl)C1CCC(c2ccccc2)CC1` (stereo not given) | 10.37% |
| `COc1ccc(CC2(CO)CCN(c3cc(C(N)=O)ccn3)CC2)cc1` | 4.008% |
| `O=C(O)C(F)(F)F.O=C(c1cscn1)N1CCc2c(COCC3CC3)cncc2C1` | -16.85% |
| `COC(CNC(=O)C1CCCC1)c1ccc(C)s1` (stereo not given) | -35.78% |
| `O=C(NCCN1CCCCC1)c1ccn(-c2ccc(F)cc2)n1` | -24.24% |
| `[H][C@@]12CCN(S(=O)(=O)c3cccnc3)C[C@]1(c1nnc(C)o1)CCO2` | -6.911% |
| `Cn1ccc(C(=O)N2CCN(c3ncccn3)CC2)cc1=O` | 17.4% |
| `CN(C)[C@@H]1CCN(CC2CC2)[C@H]1Cc1cnn(C)c1.O=C(O)C(F)(F)F.O=C(O)C(F)(F)F` | -6.731% and -22.96% |
| `CC(NC(=O)Cc1cccs1)c1nnc2n1CCC2` (stereo not given) | -36.79% |
| `Fc1cnc(N2CCCC3(CN(Cc4ccncc4)CCO3)C2)nc1.O=C(O)C(F)(F)F.O=C(O)C(F)(F)F` (stereo not given) | -17.6% |
| `Cc1cncc(C2CCN(Cc3cnc(C)nc3)CC2)n1` | -1.733% and -4.536% |
| `CCN(Cc1ccc(OC)c(F)c1)C(=O)c1ccc(C)[nH]c1=O` | -7.339% |
| `CN1CC(c2ccccc2)CC12CCN(C(=O)c1ccc(Cl)cc1)CC2` (stereo not given) | 3.486% |
| `CN(C)C(=O)Cn1cc(C(=O)NCCc2ccc(Cl)cc2Cl)nn1` | 0.3076% |
| `CCNC(=O)N1CCC2(C1)c1ccccc1S(=O)(=O)N2CCC(C)C` (stereo not given) | 11.86% |
| `CN1CCC(N(Cc2ccccc2)C(=O)c2ccn3cncc3c2)CC1` | -6.838% |
| `O=C(c1cocn1)N1CCC[C@]2(C[C@@H](OCC3CC3)CO2)C1` | 0.4634% and 7.857% |
| `COc1cccc(S(=O)(=O)CCN2CCN(CCO)CC2)c1` | 20.71% |
| `CC(C)OCCNC1(c2ccc(F)cc2)CCOCC1` | -2.732% |
| `Cc1c(C)n(Cc2ccncc2)c2nc3c(c(N)c12)CCCCCC3` | -18.71% |
| `CC1CCc2nc(O)c(C(=O)NCc3ccncc3)cc2C1` (stereo not given) | -5.102% and -23.25% |
| `CC1(C)CNC(=O)c2nc(C3CCCN(S(C)(=O)=O)C3)[nH]c2C1` (stereo not given) | 9.945% |
| `Cn1nc(C(C)(C)C)cc1NC(=O)Cn1ccnc1` | 2.408% |
| `Cc1ccc2cc(CNCCCO)c(=O)[nH]c2c1` | -23.91% |
| `Cc1nc(C)n(C2CCCN(C(=O)Cc3csc(C(C)C)n3)C2)n1` (stereo not given) | -18.49% |
| `Cc1cc(Nc2cnccn2)cc(C2CCCNC2)n1` (stereo not given) | -5.989% and -15.64% |
| `CC(OCCCNC(=O)c1cccnc1O)c1ccccc1` (stereo not given) | -9.729% |
| `CC(COc1ccccc1)NCc1nc(-c2cccnc2)no1` (stereo not given) | -24.1% |
| `CC(C)c1nc2n(n1)CC(NCC(=O)NCCC1=CCCCC1)CC2` (stereo not given) | 11.02% |
| `Cc1nccc(CNC(=O)NCCOc2ccc(F)c(F)c2)n1` | 5.061% |
| `c1c[nH]c2nc(C3CCNCC3)nc-2c1` | -3.224% |
| `Cn1cc2ncn(CCNc3cccnc3)c(=O)c2n1` | -11.49% |
| `O=C(NCC1(CO)CC1)c1nnn(-c2ccc(F)cc2)c1C1CC1` | -2.264% |
| `CN(C)c1nccc(NC(=O)c2ccncc2)n1` | -3.443% |

For reference, 8 entries once more:

Cc1nc(C)n(C2CCCN(C(=O)Cc3csc(C(C)C)n3)C2)n1 (stereo not given) gave -18.49%.
CC(OCCCNC(=O)c1cccnc1O)c1ccccc1 (stereo not given) gave -9.729%.
COCCCN1CC2(CCN(C(=O)Cc3csc(C)n3)CC2)CC1=O gave 0.6268% and 18.12%.
CCn1ncc2c1CN(C(=O)c1cc(C)oc1C)CC2COC.O=C(O)C(F)(F)F (stereo not given) gave -3.746%.
O=C(Cn1nnn(-c2cccs2)c1=O)NCC1CCOC1 (stereo not given) gave -14.94%.
CN1CCN(C(=O)c2cc3sccc3n2Cc2ccccc2Cl)CC1 gave 16.74%.
O=C(NCC1(CO)CC1)c1nnn(-c2ccc(F)cc2)c1C1CC1 gave -2.264%.
O=C1NC2(Cc3ccccc31)CN(CC1CCNC1)C2 (stereo not given) gave 9.09%.